# Among all 320,000 compounds or so, about 22,000 (6.9%) were called active. The shares of active, inactive and inconclusive entries below differ from those in the screen. Calls come from the whole dose curve; as a rule, active = well fitted inhibition curve with a large enough effect; inconclusive = small, poorly fitted or top-dose-only effect, or another doubt; inactive = no such curve, though single readings can be large or run the other way. A potency beside an inconclusive call is a rough fit, not a confirmed value. Where a SMILES comes first, the peptide text is derived from it. The star is where a group is joined. Cbz = O=C(OCc1ccccc1)*
# Assay: Primary qHTS for delayed death inhibitors of the malarial parasite plastid, 96 hour incubation
# Conditions: P. falciparum luciferase reporter growth; series mostly up to 28.7 µM
# Procedure, shortened: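 P. falciparum expressing integrated firefly luciferase, in erythrocytes at 2% hematocrit, 0.05% parasitemia, incubated with compounds 96 h at 37 C, 5% CO2. Growth inhibition read as loss of luminescence; two-generation exposure targets delayed-death apicoplast inhibitors.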
# Potency is the fitted concentration of half-maximal effect.
row,Compound,Potency
1,Cc1ccccc1C(=O)N1CCC(C(=O)Nc2ccc(S(=O)(=O)N3CCCCC3)cc2)CC1,"inconclusive: 5.22 µM [inhibitor, partial curve, poor fit]"
2,Cc1ccc(OCC(=O)Nc2cccc(S(=O)(=O)N3CCCCCC3)c2)cc1C,"inconclusive: 18.5 µM [inhibitor, single point]"
3,O=C(c1ccc2ccccc2c1)N1CCN(c2ccc([N+](=O)[O-])c(N3CCOCC3)c2)CC1,active: 8.28 µM
4,C=CCN(CC=C)CCOc1ccc(OC(C)C)cc1,"inconclusive: 0.0928 µM [inhibitor, partial curve, poor fit]"
5,COc1cc(NC(=O)c2cc([N+](=O)[O-])ccc2NC(=O)CN2CCN(c3ccccn3)CC2)cc(OC)c1,"inconclusive: 18.5 µM [inhibitor, single point]"
6,O=C1CCc2cc(OCCCCc3nnnn3C3CCCCC3)ccc2N1,"inconclusive: 0.0029 µM [inhibitor, full curve, poor fit]"
7,COc1cc(/C(C)=N/N2CCN(Cc3ccc(C)cc3)CC2)ccc1O,"inconclusive: 18.5 µM [inhibitor, single point]"
8,COc1ccc(-c2[nH]c(-c3ccccc3)nc2SCC(=O)Nc2nccs2)cc1,"inconclusive: 18.5 µM [inhibitor, single point]"
9,N=C1/C(=C/c2coc3ccccc3c2=O)C(=O)N=C2SC(c3ccco3)=NN12,inactive
10,Cc1ccc(N2CCN(S(=O)(=O)N(C)C)CC2)c(C)c1,"inconclusive: 18.5 µM [inhibitor, single point]"
11,O=C(CCN1CCCCC1)Nc1ccc(Cl)cc1C(=O)c1ccccc1,"inconclusive: 18.5 µM [inhibitor, single point]"
12,COc1ccc(C2N(c3cc(Cl)ccc3OC)C(=O)C3CCCN32)cc1OC (stereo not drawn),"inconclusive: 4.15 µM [inhibitor, full curve, poor fit]"
13,Cc1c(O)nc(SCC(=O)Nc2nccs2)n(-c2ccccc2F)c1=O,"inconclusive: 18.5 µM [inhibitor, single point]"
14,O=C(NCCCN1CCc2ccccc2C1)C1CCN(S(=O)(=O)N2CCCC2)CC1,"inconclusive: 0.208 µM [inhibitor, full curve, poor fit]"
15,CC1CC(C)CN(c2ccc(C(=O)NCc3ccc4c(c3)OCO4)cc2[N+](=O)[O-])C1 (stereo not drawn),inactive
16,Cc1onc(-c2c(Cl)cccc2Cl)c1C(=O)NC(=S)N1CCOCC1,"inconclusive: 11.7 µM [inhibitor, single point]"
17,C=CCN(C(=O)c1csnn1)C(C(=O)NC1CCCCC1)c1ccc(F)cc1 (stereo not drawn),"inconclusive: 2.08 µM [inhibitor, partial curve, poor fit]"
18,O=C(NC1(C(F)(F)F)NC(=O)N(Cc2ccccc2)C1=O)c1cccnc1 (stereo not drawn),active: 2.94 µM
19,Cn1c(CO)cnc1S(=O)(=O)Cc1ccc([N+](=O)[O-])cc1,"inconclusive: 0.586 µM [inhibitor, full curve, poor fit]"
20,CCN(CC(=O)N1CCC(C(N)=O)CC1)S(=O)(=O)c1ccc(Cl)cc1,"inconclusive: 20.8 µM [inhibitor, partial curve, poor fit]"
21,COc1ccc(C(=O)Nc2cnn(Cc3c(F)cccc3Cl)c2)cc1OC,"inconclusive: 16.5 µM [inhibitor, partial curve, poor fit]"

row,Compound,Potency
1,CCOC(=O)CN1C(=O)S/C(=C/c2ccc(OCc3ccc(C(=O)O)cc3)cc2)C1=O,"inconclusive: 10.4 µM [inhibitor, single point]"
2,COC(=O)c1cc(NC(=O)Cc2cc(OC)c(OC)c(OC)c2)cc(C(=O)OC)c1,"inconclusive: 9.28 µM [inhibitor, partial curve, poor fit]"
3,O=C(Cc1c(Cl)cccc1Cl)N1CCN(S(=O)(=O)c2cccs2)CC1,"inconclusive: 11.7 µM [inhibitor, single point]"
4,CCOC(=O)Cn1cc(C=C2C(=O)N(C)C(=O)N(C)C2=O)c2ccccc21,inactive
5,O=C(O)c1cccc(-n2c(/C=C/c3cccc([N+](=O)[O-])c3)nc3ccccc3c2=O)c1,"inconclusive: 8.28 µM [inhibitor, partial curve]"
6,O=C(CSCC(=O)N1CCOCC1)Nc1nc(-c2ccc3c(c2)OCO3)cs1,inactive
7,CCCc1ccc(-c2cc(C(=O)Nc3ccc([N+](=O)[O-])cn3)c3ccccc3n2)cc1,"inconclusive: 9.28 µM [inhibitor, partial curve, poor fit]"
8,Cc1ccc(S(=O)(=O)N(C)C)cc1NC(=O)CSc1nc2ccccc2c(=O)n1CC1CCCO1 (stereo not drawn),"inconclusive: 0.928 µM [inhibitor, partial curve]"
9,O=C1Nc2ccc([N+](=O)[O-])cc2C1(O)N1CCCCC1 (stereo not drawn),"inconclusive: 0.0026 µM [inhibitor, full curve, poor fit]"
10,O=C(CS(=O)CC(=O)N(c1ccccc1)C(C(=O)NC1CCCC1)c1cccs1)Nc1ccc(F)cc1 (stereo not drawn),"inconclusive: 0.828 µM [inhibitor, partial curve, poor fit]"
11,O=C(Cn1cnc2ccc(Cl)cc2c1=O)NC1CCS(=O)(=O)C1 (stereo not drawn),inactive
12,O=C(NCCCl)NNc1c(Cl)cc(Cl)cc1Cl,"inconclusive: 18.5 µM [inhibitor, partial curve, poor fit]"
13,COc1cc(CC(=O)Nc2ccc3c(c2)CCC3)cc(OC)c1OC,inactive
14,CC(C)(C)OC(=O)N/N=C/c1ccc(N2CCOCC2)s1,"inconclusive: 0.828 µM [inhibitor, full curve, poor fit]"
15,Cc1ccc(CN(CC(=O)NCCc2ccccc2)C(=O)CCCC(=O)Nc2cc(C)on2)cc1,"inconclusive: 16.5 µM [inhibitor, single point]"
16,O=C1C2CCCN2C(c2cccnc2)N1c1cccc(Cl)c1 (stereo not drawn),inactive
17,Cc1ccc(N2C(=N)/C(=C3/Nc4ccccc4S3)C(c3ccccc3)C2=O)cc1 (stereo not drawn),"inconclusive: 18.5 µM [inhibitor, single point]"
18,COc1ccccc1N(CC(=O)Nc1ccc(Br)cc1F)S(=O)(=O)c1cccs1,"inconclusive: 9.28 µM [inhibitor, partial curve]"
19,CC(=O)OCC(=O)[C@@]1(O)CC[C@H]2[C@@H]3CCC4=CC(=O)C=C[C@]4(C)[C@H]3C(=O)C[C@@]21C,inactive
20,C[C@]12C/C(=C/O)C(=O)C[C@@H]1CC[C@@H]1[C@@H]2CC[C@@]2(C)[C@H]1CC[C@]2(C)O,"inconclusive: 8.49 µM [inhibitor, partial curve]"
21,CCCn1nc(NS(=O)(=O)c2cccc3nonc23)c2cc3cc(C)ccc3nc21,"inconclusive: 6.57 µM [inhibitor, partial curve, poor fit]"

row,Compound,Potency
1,O=C(Nc1ccccc1F)C1CCN(C(=O)Cc2ccccc2)CC1,"inconclusive: 10.4 µM [inhibitor, single point]"
2,O=S(=O)(c1ccc(NC(=S)NCc2cccnc2)cc1)N1CCCCC1,"inconclusive: 10.4 µM [inhibitor, single point]"
3,O=C(Nc1ccccc1Cl)N1CCN(Cc2ccc3c(c2)OCO3)CC1,"inconclusive: 11.7 µM [inhibitor, single point]"
4,O=C(Nc1nc(-c2ccccn2)cs1)c1ccc([N+](=O)[O-])o1,active: 2.33 µM
5,C[C@H](NC(=O)OCc1ccccc1)C(=O)N[C@@H](Cc1c[nH]c2ccccc12)C(=O)O (Cbz-Ala-Trp-OH),"inconclusive: 18.5 µM [inhibitor, single point]"
6,CCNC(=S)N/N=C/c1ccc(F)cc1,"inconclusive: 18.5 µM [inhibitor, single point]"
7,COc1cc(C)c(NC(=O)C2CCN(S(=O)(=O)c3cccs3)CC2)cc1OC,inactive
8,CNCc1ccccc1OCc1ccccc1F,"inconclusive: 0.928 µM [inhibitor, full curve]"
9,COC(=O)CC(NC(=O)c1cccs1)c1ccc(OC)c(OC)c1 (stereo not drawn),inactive
10,O=C(O)c1ccccc1-c1ccc(C(F)(F)F)cc1,inactive
11,COc1ccc(OC)c(NC(=O)CN(Cc2ccc(F)cc2)C2CCCCC2)c1,"inconclusive: 7.38 µM [inhibitor, partial curve]"
12,O=C(Cn1cnc2ccccc21)N/N=C/c1ccccc1,inactive
13,COc1ccccc1-c1ccc(SCC(=O)NCCc2ccccc2)nn1,"inconclusive: 4.15 µM [inhibitor, single point]"
14,O=C(NNC(=O)C1CC(=O)N(Cc2ccccc2)C1)c1ccc(Br)cc1 (stereo not drawn),active: 2.33 µM
15,Cn1c(CN2CCN(c3ccc(Cl)cc3)CC2)nc2ccccc21,"inconclusive: 4.15 µM [inhibitor, full curve, poor fit]"
16,COc1ccccc1NS(=O)(=O)c1ccc(N/N=C/c2c(C)nn(-c3ccccc3)c2N2CCCC2)c([N+](=O)[O-])c1,"inconclusive: 0.465 µM [inhibitor, partial curve, poor fit]"
17,CCN(c1ccccc1)S(=O)(=O)c1ccc(C(=O)Nc2nnc(C3CC3)o2)cc1,"inconclusive: 8.28 µM [inhibitor, partial curve, poor fit]"
18,COc1cc(OC)c(C2CC(=O)N3CN(c4ccccc4)CSC3=C2C#N)cc1OC (stereo not drawn),"inconclusive: 10.4 µM [inhibitor, single point]"
19,Cc1cc(C)c2nc(N3CCCN(C(=O)c4cnccn4)CC3)c(C#N)cc2c1,"inconclusive: 3.29 µM [inhibitor, single point]"
20,Nc1ncnc2c1ncn2CCOCP(=O)(O)O,"inconclusive: 0.601 µM [inhibitor, full curve]"
21,N=c1sccn1CC(=O)Nc1cccc(S(N)(=O)=O)c1,inactive

# Taken from above:
# `CC(C)(C)OC(=O)N/N=C/c1ccc(N2CCOCC2)s1` | Potency: inconclusive: 0.828 µM [inhibitor, full curve, poor fit]
# `O=C(CSCC(=O)N1CCOCC1)Nc1nc(-c2ccc3c(c2)OCO3)cs1` | Potency: inactive

# Reference: PubChem BioAssay AID504834 (National Center for Advancing Translational Sciences (NCATS), 2011)
